# PubChem BioAssay AID1259425, University of Nebraska Medical Center, 2018
# Screen: 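Seek colon cancer weak points whose silencing resembles KSR1 loss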 (primary screen)
# System: HCT116 human colon cancer cells
# Knock-down reagent: siRNA pool against human genes, 50 nM siRNA
# Measured: 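mRNA of six signature genes measured together by branched-DNA assay after 50 nM siRNA pool, blank removed, divided by geometric mean of two housekeeping genes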
# Reading the numbers: BNIP3L mRNA: higher = more BNIP3L transcript after knockdown; NDRG1 mRNA: higher = more NDRG1 transcript after knockdown; BNIP3 mRNA: higher = more BNIP3 transcript after knockdown
# Shown is one part, drawn at random, of about 14,000 deposited reagents. Not all columns of the deposit are shown. Reagent sequences are not shown. Not stated in the record: the time to read-out.
target gene,"BNIP3L mRNA, set 1","NDRG1 mRNA, set 1","BNIP3 mRNA, set 1"
PLPPR1 (phospholipid phosphatase related 1),0.129,0.221,0.239
ENPP1 (ectonucleotide pyrophosphatase/phosphodiesterase 1),0.11,0.161,0.314
ELP1 (elongator acetyltransferase complex subunit 1),0.0747,0.121,0.381
ERG (ETS transcription factor ERG),0.0374,0.0789,0.234
KLRC2 (killer cell lectin like receptor C2),0.0644,0.0359,0.373
NAGPA,0.0923,0.0922,0.269
NFE2L2 (NFE2 like bZIP transcription factor 2),0.0772,0.105,0.212
KLK14 (kallikrein related peptidase 14),0.106,0.0617,0.47
RTN2 (reticulon 2),0.0705,0.128,0.236
TRAPPC2 (trafficking protein particle complex subunit 2),0.212,0.215,0.313
CCDC33 (coiled-coil domain containing 33),0.0951,0.238,0.253
RDH5 (retinol dehydrogenase 5),0.131,0.288,0.222
SPIRE2 (spire type actin nucleation factor 2),0.0963,0.166,0.254
MRPS7 (mitochondrial ribosomal protein S7),0.134,0.903,0.393
TNFSF12 (TNF superfamily member 12),0.136,0.168,0.203
SLC2A9,0.156,0.408,0.289
CDK5R2 (cyclin dependent kinase 5 regulatory subunit 2),0.111,0.103,0.315
TFF1 (trefoil factor 1),0.0956,0.615,0.391
SEL1L2 (SEL1L2 adaptor subunit of SYVN1 ubiquitin ligase),0.156,1.16,1.35
BNIP3 (BCL2 interacting protein 3),0.0413,0.171,-0.000345
RIPPLY3 (ripply transcriptional repressor 3),0.113,0.132,0.323
DLG5 (discs large MAGUK scaffold protein 5),0.0921,0.228,0.258
"HLA-B (major histocompatibility complex, class I, B)",0.104,0.396,0.359
FOXL1 (forkhead box L1),0.0764,0.192,0.35
KRT85 (keratin 85),0.15,0.188,0.447
DENND10P1 (DENND10 pseudogene 1),0.0492,0.146,0.308
OPTN (optineurin),0.106,0.219,0.267
ARHGEF9 (Cdc42 guanine nucleotide exchange factor 9),0.106,0.274,0.402
AKT2 (AKT serine/threonine kinase 2),0.183,0.412,0.428
"ABHD2 (abhydrolase domain containing 2, acylglycerol lipase)",0.134,0.0621,0.235
ZCCHC9 (zinc finger CCHC-type containing 9),0.29,0.273,0.478
RNF141 (ring finger protein 141),0.0989,0.207,0.296
TPGS2 (tubulin polyglutamylase complex subunit 2),0.104,0.534,0.711
COP1 (COP1 E3 ubiquitin ligase),0.133,0.219,0.222
MED25 (mediator complex subunit 25),0.193,0.39,0.272
CEBPB (CCAAT enhancer binding protein beta),0.0795,0.0894,0.336
CFDP1 (chromatin remodeling protein CFDP1),0.0985,0.267,0.417
BAZ1A (bromodomain adjacent to zinc finger domain 1A),0.105,0.162,0.341
SCARB1 (scavenger receptor class B member 1),0.0981,0.111,0.279
"PCDHAC2 (protocadherin alpha subfamily C, 2)",0.108,0.213,0.295
MAP2K7 (mitogen-activated protein kinase kinase 7),0.151,0.0939,0.297
PRIM1 (DNA primase subunit 1),0.0812,0.19,0.301
TNF (tumor necrosis factor),0.176,0.38,0.214
DDX54 (DEAD-box helicase 54),0.163,0.142,0.3
TTI1 (TELO2 interacting protein 1),0.2,0.161,0.423
RALB (RAS like proto-oncogene B),0.089,0.0427,0.37
EDNRA (endothelin receptor type A),0.0939,0.183,0.334
PRPF40B (pre-mRNA processing factor 40B),0.0418,0.0355,0.0445
MACC1 (MET transcriptional regulator MACC1),0.159,0.183,0.309
APOL4 (apolipoprotein L4),0.315,0.245,0.532

Laid out differently: results already given.
| target gene | BNIP3L mRNA, set 1 | NDRG1 mRNA, set 1 | BNIP3 mRNA, set 1 |
| --- | --- | --- | --- |
| TTI1 (TELO2 interacting protein 1) | 0.2 | 0.161 | 0.423 |
| RALB (RAS like proto-oncogene B) | 0.089 | 0.0427 | 0.37 |
| EDNRA (endothelin receptor type A) | 0.0939 | 0.183 | 0.334 |
| PRPF40B (pre-mRNA processing factor 40B) | 0.0418 | 0.0355 | 0.0445 |
